Source: PubChem BioAssay AID662 (National Center for Advancing Translational Sciences (NCATS), 2007)
This is one part of the list. Further columns of the screen follow, without active or inactive calls. The list favours compounds with an active or inconclusive main result. Words in brackets tell the shape of the fitted curve; partial curves, single points and poor fits give uncertain potencies.

Assay: Cell signaling CRE-BLA (Fsk stim)
Conditions: CHO CRE-bla reporter (cAMP response element driving beta-lactamase), forskolin EC10, beta-lactamase ratio; measured here: 460 nm blue channel
Procedure, shortened: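 CRE-bla CHO cells stimulated with EC10 NKH 477 (water-soluble forskolin) and compound titrations, 3 h at 37C; beta-lactamase read with CCF4 after 2 h at room temperature. Activity from 460/530 nm emission ratio, AC50 values for positive or negative modulation.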

Structure (SMILES) | AC50
CC(C)C(=O)Nc1ccccc1N1CCN(S(C)(=O)=O)CC1 | 12.6 µM [rising, partial curve]
Cc1[nH]c2ccccc2c1C(=O)COC(=O)C1CCC(=O)N1 (stereo unspecified) | 5.01 µM [falling, single point]
CC1CCCC(C)N1CCCNC(=O)c1cc2c(=O)n(C)c3ccccc3c2n1C (stereo unspecified) | 12.6 µM [rising, partial curve]
Cc1ccccc1-c1nc(NC2CC2)c2ccccc2n1 | 1.26 µM [rising, full curve, poor fit]
COc1cccc(-c2csc3nnc(SCC(=O)NCc4cccs4)n23)c1 | 25.1 µM [rising, single point]
CCOC(=O)CS(=O)(=O)c1nc(-c2ccccc2)cc(C(F)(F)F)n1 | 12.6 µM [falling, partial curve]
c1ccc(-c2cn3c4c(sc3n2)CCCC4)cc1 | 3.16 µM [rising, single point]
O=C(NC1CCCCC1)c1ccc(S(=O)(=O)NCc2ccco2)cc1 | 0.794 µM [falling, full curve]
O=C(Nc1cccc(F)c1)c1cc(S(=O)(=O)N2CCC(C(=O)O)CC2)ccc1F | 10 µM [rising, partial curve]
CC1CCN(C(=O)C2c3ccccc3C(=O)N3CCc4ccccc4C23)CC1 (stereo unspecified) | 0.0631 µM [falling, partial curve]
CCOC(=O)c1cc2n(c1C)-c1ccccc1C2=O | 15.8 µM [rising, partial curve]
CC(C)[C@@H](CC(=O)N[C@@H]1CCCC[C@H]1C(=O)N[C@H](CC(=O)N[C@@H](CCC(=O)O)CC(=O)O)Cc1ccccc1)NC(=O)C[C@H](CO)NC(=O)[C@@H]1CCCC[C@H]1N | 6.31 µM [falling, partial curve, poor fit]
CCOc1ccc(Br)cc1/C=N/O | 0.398 µM [rising, full curve]
COC(=O)c1ccc(CSc2nc3ccccc3s2)o1 | 12.6 µM [rising, single point]
CC(C)Oc1ccccc1C1CC(=O)Nc2cc3c(cc21)OCO3 (stereo unspecified) | 5.01 µM [rising, partial curve]
COc1ccc(C2C=C(C)Nc3nc(SC)nn32)cc1 (stereo unspecified) | 10 µM [rising, partial curve]
COc1ccccc1-c1ccc2ncnc(NCc3cnc(C)cn3)c2c1 | 6.31 µM [rising, partial curve]
Cc1ccc(OCc2nnc(SCC(=O)c3ccccc3)n2Cc2ccco2)cc1 | 25.1 µM [falling, single point]
COc1ccc(-c2nc3cnc(N(C)C)nc3n(Cc3ccc(F)cc3)c2=O)cc1 | 1.58 µM [rising, full curve]
CCOC(=O)c1c(NC(=O)c2ccn(CC)n2)sc2c1CCCC2 | 5.01 µM [rising, partial curve]
CCOC(=O)C1CCN(C(=O)CSc2cc(=O)n(CC)c3ccccc23)CC1 | 0.0794 µM [falling, full curve, poor fit]
Cc1ccc(S(=O)(=O)Nc2ccc(NC(=O)CN3CCCCC3)cc2)cc1 | 0.00316 µM [falling, full curve, poor fit]

Structure (SMILES) | AC50
CCCCn1c(SCc2ncc(-c3ccccc3)o2)nc2cc(S(N)(=O)=O)ccc21 | 12.6 µM [rising, single point]
CCN(CC(=O)NCCc1ccc(S(N)(=O)=O)cc1)Cc1nc2ccccc2c(=O)[nH]1 | 0.794 µM [rising, full curve]
O=c1cc(N2CCc3ccccc3C2)[nH]c(=O)n1-c1ccc(Br)cc1 | 1.26 µM [falling, partial curve, poor fit]
COCCn1c(=S)[nH]c2cc(C(=O)N3CCc4ccccc43)ccc2c1=O | 25.1 µM [rising, single point]
COc1ccc(C(=O)c2no[n+]([O-])c2C(=O)c2ccc(OC)cc2)cc1 | 12.6 µM [falling, partial curve]
Cc1cc(C(=O)CN2C(=O)NC(Cc3c[nH]c4ccccc34)C2=O)c(C)n1C (stereo unspecified) | 0.794 µM [falling, full curve]
CCCN(CCC(=O)Nc1ccccc1F)CC1CC1 | 0.398 µM [rising, full curve]
CCOc1ccc2[nH]c(=O)c(CN(Cc3cccs3)Cc3nnnn3C(C)(C)CC)cc2c1 | 15.8 µM [falling, partial curve]
NCCC[C@@H](CC(=O)N[C@@H]1CCNC[C@H]1C(=O)N[C@H](CC(=O)N[C@@H](CCC(=O)O)CC(=O)O)Cc1c[nH]c2ccccc12)NC(=O)C[C@H](CO)NC(=O)[C@@H]1CCCC[C@H]1N | 10 µM [falling, partial curve]
COc1ccc(C(C)=O)c(OC(=O)c2ccc(OC)c(OC)c2)c1 | 5.01 µM [rising, partial curve]
CCOc1cc(C)c(Cl)cc1S(=O)(=O)n1nnc2ccccc21 | 12.6 µM [falling, partial curve]
Cc1ccc(-c2c3c(=O)n(C)c(=O)n(C)c3cn2Cc2ccccn2)cc1 | 3.98 µM [falling, partial curve]
Cc1cccc2cc3c(NC(=O)C(C)C)nn(C)c3nc12 | 2.51 µM [rising, full curve]
COCCNC(=O)Cc1cn(C)c2ccccc12 | 0.00316 µM [falling, full curve, poor fit]
Cc1ccc(/C=c2\s/c(=C(/C#N)C(=O)N3CCCC3)n(Cc3ccco3)c2=O)s1 | 5.01 µM [rising, single point]
c1ccc2c(c1)oc1c(N3CCOCC3)ncnc12 | 5.01 µM [falling, partial curve]
Cc1ccc(C(=O)CSc2nnc(-c3ccco3)n2CC2CCCO2)cc1 (stereo unspecified) | 20 µM [falling, single point]
O=C(c1ccc(Br)s1)N1CCN(Cc2ccc3c(c2)OCO3)CC1 | 0.00316 µM [falling, full curve, poor fit]
CCOC(=O)c1c(C)[nH]c(C(=O)OCc2c(C)noc2C)c1C | 3.98 µM [rising, full curve]
COc1ccc(N(CC(=O)Nc2ccc(OC)c(Cl)c2)S(=O)(=O)c2c(C)noc2C)cc1 | 3.16 µM [falling, single point]
Oc1c(C(Nc2ccccn2)c2ccccn2)ccc2cccnc12 (stereo unspecified) | 2.51 µM [rising, full curve]
Cc1ccccc1Cn1cc(NC(=O)c2cc(-c3cccs3)on2)cn1 | 15.8 µM [falling, partial curve]

Some of the entries so far, as tab-separated lines:
Structure (SMILES)	AC50
CC1CCN(C(=O)C2c3ccccc3C(=O)N3CCc4ccccc4C23)CC1 (stereo unspecified)	0.0631 µM [falling, partial curve]
CCOC(=O)c1cc2n(c1C)-c1ccccc1C2=O	15.8 µM [rising, partial curve]
CC(C)[C@@H](CC(=O)N[C@@H]1CCCC[C@H]1C(=O)N[C@H](CC(=O)N[C@@H](CCC(=O)O)CC(=O)O)Cc1ccccc1)NC(=O)C[C@H](CO)NC(=O)[C@@H]1CCCC[C@H]1N	6.31 µM [falling, partial curve, poor fit]
CCOc1ccc(Br)cc1/C=N/O	0.398 µM [rising, full curve]

Continued:

Structure (SMILES) | AC50
CCOC(=O)N1CCC(NC(=O)c2ccc3c(c2)ncn3C2CCCC2)CC1 | 10 µM [rising, single point]
Brc1cnc(N2CCCC2)nc1N1CCOCC1 | 25.1 µM [rising, single point]
Cc1c(C(=O)NCC2CCCO2)sc2nc(-c3ccc(F)cc3)cn12 (stereo unspecified) | 7.94 µM [rising, partial curve]
O=C(CSc1oc(-c2ccco2)nc1S(=O)(=O)c1ccccc1)NCC1CCCO1 (stereo unspecified) | 0.00398 µM [falling, full curve, poor fit]
Cc1ccc(NC(=O)CSC(N)=O)cc1Cl | 12.6 µM [falling, single point]
COCCNC(=O)c1ccccc1NC(=O)c1ccc(OC)c(OC)c1 | 10 µM [rising, partial curve]
COc1ccc(Br)cc1-c1nc(C)c(C(C)=O)n1O | 0.631 µM [falling, single point]
COc1ccc(COn2c(=O)c(C)[n+]([O-])c3ccccc32)cc1OC | 10 µM [rising, partial curve]
C=CCn1c(SCc2nc3c(c(=O)[nH]c(=O)n3CCCC)n2CCC)nnc1-c1ccccc1 | 3.98 µM [rising, full curve]
O=C(c1cccnc1)N1CCCc2ccccc21 | 0.00316 µM [falling, full curve, poor fit]
O=C(Oc1ccc2c(c1)OCO2)c1ccncc1 | 5.01 µM [falling, partial curve]
CCCCN1CCCCC1C(=O)Nc1c(C)cc(C)cc1C (stereo unspecified) | 31.6 µM [falling, partial curve]
CCCCCCCCCCCCOS(=O)(=O)O | 25.1 µM [falling, single point]
COc1ccc(CCNC(=O)Cc2cc(=O)[nH]c(=O)[nH]2)cc1OC | 5.01 µM [rising, single point]
CN1CCN(c2ncc3nc(-c4cccs4)c(=O)n(CCc4ccccc4)c3n2)CC1 | 2.51 µM [rising, full curve]
COc1ccc(OC(C)C(=O)N2CCN(c3ccccn3)CC2)cc1 (stereo unspecified) | 15.8 µM [rising, single point]
C=CCn1c(C)cc(C(=O)CSc2nc3ccccc3c(=O)[nH]2)c1C | 10 µM [rising, single point]
Cc1cc(C)n2nc(SCC(=O)N(C(C)C)C(C)C)nc2n1 | 2.51 µM [rising, full curve, poor fit]
Cc1ccc(NC(=O)NC(=O)CN2C(=O)NC3(CCCCCCC3)C2=O)c(C)c1 | 25.1 µM [rising, single point]
O=C(O)COc1ccc2c(c1)CCCC2 | 0.00398 µM [falling, full curve, poor fit]
COc1ccccc1-c1ccc2ncnc(N(C)C)c2c1 | 3.16 µM [rising, full curve]
Cc1nc2sc(C(c3ccco3)N3CCN(c4ccc(F)cc4)CC3)c(O)n2n1 (stereo unspecified) | 1.26 µM [rising, full curve]
